Experimental data as given in patent US20220025056A1.
Numbering of substitutions follows the chain as printed. These are yes or no findings as the source states them, for the method shown. Binding can be weak; no strength is given. Blank lines part the entries; values can stand above or below the binder they belong to.

Target: anchored ILT2 D1 domain protein (human)
Assay: flow cytometry, CHO cells with anchored ILT2 domain proteins

B2: 1E4C (antibody, human IgG1, V domains shown)
VH: QRELQQSGPELVKPGASVNISCKASGYSFTNHYINWVKQRPGQGLEWIGWIFPGNGDTNYNEKFKGKATLTADTSSSTAYMQLSSLTSEDSAVYFCARTWNYDARWGYWGQGTTVTVSS
VL: DVVMTQTPAFLAVSLGQRATISCRASESIDSYGISFMHWYQQKPGQPPKVLIYRTSNLESGIPARFSGSGSRTDFTLTINPVEADDVATYYCQQSNEDPFTFGSGTKLEIK
binding: binds

B4: 3A7A (antibody, human IgG1, V domains shown)
VH: QVQLKESGPELVKPGTSVKISCKASGYNFRNYYIQWVKQRPGQGLEWIGWIFPGNNETNYNEKFKGKATLSADTSSTTAYMQLSSLTSEDSAVYFCARSWNYDARWGYWGQGTTVTVSS
VL: B2 VL with F10S, S28I, S31N, M37I, V50L, T55A, F75S, E83G, I110L
binding: binds

B5: 3H5 (antibody, human IgG1, V domains shown)
VH: QVQLKESGPGLVAPSQSLSITCTVSGFSLTSYGVSWVRQPPGKGLEWLGVIWGDGSTNYHSALISRLSISKDNSKSQVFLKLNSLQTDDTATYYCAKPRWDDYAMDYWGQGTSVTVSS
VL: DIQMTQTTSSLSASLGDRVTISCRASQDISNYLNWYQQKPDGTVKLLIYYTSRLHSGVPSRFSGSGSGTDYSLTISNLEQEDIATYFCQQGNTLWTFGGGTKLEIK
binding: binds

Now from value to binder:

binding: binds
B1: 27H5 (antibody, human IgG1, V domains shown)
VH: QVQLKESGPGLVAPSQSLSITCTVSGFSLTSYGVSWVRQPPGKGLEWLGVIWGDGNTNYHSALISRLSISKDNSKSQVFLKLNSLQTDDTATYYCARTNWDGWFAYWGQGTLVTVSA
VL: DIVMTQSHKFMSTSVGDRVSITCKASQDVGTAVAWYQQKPGQSPKLLIYWASTRHTGVPDRFTGSGSGTDFTLTISNVQSEDLADYFCQQYRSYPLGTFGGGTKLEIK

binding: binds
B3: 1A9 (antibody, human IgG1, V domains shown)
VH: EVKLQQSGPDLVKPGASVKISCKASGYSFTNFYIHWVKQRPGQGLEWIGWIFPGNGETNYSEKFKGKATLTADTSSSTAYMQFNSLTYEDSAVYFCARTWNYDARWGYWGQGTTLTVSS
VL: B2 VL with F10S, E27D, S28G, H38R, K49T, V50L, T55A, N57T, D74N, S95T

binding: binds
B6: 48F12 (antibody, human IgG1, V domains shown)
VH: B5 VH with V50I, I64V, R99N, D102Y
VL: DIQMTQTTSSLSASLGDRVTISCRASQDISNYLNWYQQKVDGTVKLLISYTSRLHSGVPSRFSGSGSGTDYSLTISNLEQEDIATYFCQQGITLPLTFGAGTKLELK

binding: binds
B7: 12D12 (antibody, human IgG1, V domains shown)
VH: QVQLQQPGAELVKPGASVRMSCKASGYTFTSYWVHWVKQRPGQGLEWIGVIDPSDSYTSYNQNFKGKATLTVDTSSKTAYIHLSSLTSEDSAVYFCARGERYDGDYFAMDYWGQGTSVTVSS
VL: DIVMTQSPASLSVSVGETVTITCRASENIYSNLAWYQQKQGKSPQLLVYAATNLADGVPSRFSGSRSGTQYSLKINSLQSEDFGTYYCQHFWNTPRTFGGGTKLEIK
